Assay results from patent publication US20180230218A1.
Substitutions are numbered along the chain they refer to. These are yes or no findings as the source states them, for the method shown. Binding can be weak; no strength is given. Values belong to the binder of their own block, whether it stands above or below them.

Target: Cyno cMet-ECD-his (cynomolgus monkey)
Assay: BLI (ForteBio)

binding: binds
B1: hucMet22Gv2.2 (antibody, V domains shown)
VH: QVQLVQSGAEVKKPGASVKVSCKASGYTFTDYNMDWVRQAPGQRLEWIGDLNPNNGATIYNQKFKGRATLTVDMSASTAYMELSSLRSEDTAVYYCARGNYYGNYYYLMDYWGQGTSVTVSS
VL: DIQMTQSPSSLSASVGDRVTITCRASENIYSTLAWYQQKPGKAPKLLVYAATNLADGVPSRFSGSGSGTDYTLTISSLQPEDFATYYCQHFWGTPYTFGQGTKVEIKR

binding: binds
B2: hucMet27v1.2 (antibody, human IgG1, kappa, V domains shown)
VH: EVQLVESGGGLVQPGGSLRLSCAASGFTFSSYDMSWVRQTPGKGLELVATINSNGVSIYYPDSVKGRFTISRDIAKNTLYLQMSSLRAEDTAMYYCAREEITTEMDYWGQGTSVTVSS
VL: DIVLTQSPASLAVSPGQRATISCRASESVDSYGNSFIHWYQQKPGQPPKLLIYRASNLESGIPARFSGSGSRTDFTLTINPVEANDVATYYCQQSNEEPLTFGGGTKLELKR

binding: binds
B3: hucMet27Gv1.2 (antibody, human IgG1, kappa, V domains shown)
VH: B2 VH with T40A, T78S, S84N, M93V, S113L
VL: EIVLTQSPATLSLSPGERATLSCRASESVDSYGNSFIHWYQQKPGQAPRLLIYRASNLESGIPARFSGSGSGTDFTLTISSLEPEDFAVYYCQQSNEEPLTFGQGTKVELKR
